Publication PMC11758950

Molecular target: T1, ELFN1-Venus (mouse) (UniProt Q8C8T7)
T1 sequence: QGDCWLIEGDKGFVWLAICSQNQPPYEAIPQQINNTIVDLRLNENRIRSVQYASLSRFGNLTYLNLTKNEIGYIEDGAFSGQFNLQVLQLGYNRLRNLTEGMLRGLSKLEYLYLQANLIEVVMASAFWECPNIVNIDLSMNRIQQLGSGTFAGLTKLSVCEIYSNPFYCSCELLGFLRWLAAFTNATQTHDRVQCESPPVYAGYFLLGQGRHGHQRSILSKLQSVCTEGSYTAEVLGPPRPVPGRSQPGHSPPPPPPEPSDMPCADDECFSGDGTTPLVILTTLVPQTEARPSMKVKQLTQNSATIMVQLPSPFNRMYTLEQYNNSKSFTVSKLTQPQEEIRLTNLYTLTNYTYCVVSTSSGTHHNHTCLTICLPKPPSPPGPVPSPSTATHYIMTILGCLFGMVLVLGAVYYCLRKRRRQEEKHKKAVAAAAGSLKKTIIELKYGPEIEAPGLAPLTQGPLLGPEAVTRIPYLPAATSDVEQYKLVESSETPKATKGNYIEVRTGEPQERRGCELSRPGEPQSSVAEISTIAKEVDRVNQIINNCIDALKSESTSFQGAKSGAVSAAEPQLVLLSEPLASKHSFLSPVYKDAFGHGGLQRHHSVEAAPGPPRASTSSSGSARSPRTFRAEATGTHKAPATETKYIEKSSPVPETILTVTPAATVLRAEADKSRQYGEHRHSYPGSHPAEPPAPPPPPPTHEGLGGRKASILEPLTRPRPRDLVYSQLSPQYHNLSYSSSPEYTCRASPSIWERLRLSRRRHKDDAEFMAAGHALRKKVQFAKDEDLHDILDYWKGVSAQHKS
Test: co-IP; co-transfected HEK 293 T/17 cells (2.5 ug of each construct), 1% Triton-X lysis buffer; Protein G Sepharose beads with mouse GFP antibody, 1 h at 4 C, washed 3 times; blot with myc antibody

| binding | Substance |
| --- | --- |
| binds | ELFN1ΔFN3-myc (from UniProt Q8C8T7) |
| binds | ELFN1ΔSP-myc (from UniProt Q8C8T7) |
| no binding | ELFN1ΔLRR-myc (from UniProt Q8C8T7) |

No constants are given. Whether binding was seen depends on the method and setting. In cells and extracts the contact can be indirect. A result given as binding can be weak or reduced; the word gives no strength.
